This is one part of the list.
Assays:
Experiment in all cases: glycan array binding signal (z-score within array); higher = stronger binding
Details in all cases: glycan notation: IUPAC condensed, linker removed
[1] = molecular target: Fuc(a1-2)[GalNAc(a1-3)]Gal(b1-3)GlcNAc(b1-3)GalNAc
In short: (§1)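 Glycan array data came from 3228 arrays in the Consortium for Functional Glycomics database, and only arrays with an available protein sequence were kept. Glycan names were put into IUPAC-condensed notation, and columns mapping to the same glycan were averaged. The binding signal is a within-array Z-score, averaged across arrays of one protein sequence run at different concentrations or buffers and across linkers. A negative Z-score can be read as non-binding.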

[2] = molecular target: Fuc(a1-2)[GalNAc(a1-3)]Gal(b1-3)GlcNAc(b1-6)GalNAc
In short: as §1

[3] = molecular target: Fuc(a1-2)[GalNAc(a1-3)]Gal(b1-4)Glc
In short: as §1

[4] = molecular target: Fuc(a1-2)[GalNAc(a1-3)]Gal(b1-4)GlcNAc
In short: as §1

[5] = molecular target: Fuc(a1-2)[GalNAc(a1-3)]Gal(b1-4)GlcNAc(b1-2)Man
In short: as §1

[6] = molecular target: Fuc(a1-2)[GalNAc(a1-3)]Gal(b1-4)GlcNAc(b1-2)Man(a1-3)[Fuc(a1-2)[GalNAc(a1-3)]Gal(b1-4)GlcNAc(b1-2)Man(a1-6)]Man(b1-4)GlcNAc(b1-4)GlcNAc
In short: as §1

[7] = molecular target: Fuc(a1-2)[GalNAc(a1-3)]Gal(b1-4)GlcNAc(b1-2)Man(a1-3)[Fuc(a1-2)[GalNAc(a1-3)]Gal(b1-4)GlcNAc(b1-2)Man(a1-6)]Man(b1-4)GlcNAc(b1-4)[Fuc(a1-6)]GlcNAc
In short: as §1

[8] = molecular target: Fuc(a1-2)[GalNAc(a1-3)]Gal(b1-4)GlcNAc(b1-3)Gal(b1-4)GlcNAc
In short: as §1

[9] = molecular target: Fuc(a1-2)[GalNAc(a1-3)]Gal(b1-4)GlcNAc(b1-3)Gal(b1-4)GlcNAc(b1-3)Gal(b1-4)GlcNAc
In short: as §1

[10] = molecular target: Fuc(a1-2)[GalNAc(a1-3)]Gal(b1-4)GlcNAc(b1-3)GalNAc
In short: as §1

[11] = molecular target: Fuc(a1-2)[GalNAc(a1-3)]Gal(b1-4)GlcNAc(b1-3)[Fuc(a1-2)[GalNAc(a1-3)]Gal(b1-4)GlcNAc(b1-6)]GalNAc
In short: as §1

[12] = molecular target: Fuc(a1-2)[GalNAc(a1-3)]Gal(b1-4)GlcNAc(b1-6)GalNAc
In short: as §1

[13] = molecular target: Fuc(a1-2)[GalNAc(a1-3)]Gal(b1-4)[Fuc(a1-3)]GlcNAc
In short: as §1

[14] = molecular target: Fuc(a1-2)[GalNAc(a1-3)]Gal(b1-4)[Fuc(a1-3)]GlcNAc(b1-3)GalNAc
In short: as §1

[15] = molecular target: Fuc(a1-2)[GalNAc(a1-4)]Gal(b1-4)GlcNAc
In short: as §1

[16] = molecular target: Fuc(a1-2)[GalNAc(b1-3)]Gal
In short: as §1

Fuc(a1-3)GlcNAc = molecular target: Fuc(a1-3)GlcNAc
In short: as §1

[17] = molecular target: Fuc(a1-3)[Gal(b1-4)]Glc6S
In short: as §1

[18] = molecular target: Fuc(a1-3)[Gal(b1-4)]GlcNAc
In short: as §1

[19] = molecular target: Fuc(a1-3)[Gal(b1-4)]GlcNAc(b1-2)Man
In short: as §1

[20] = molecular target: Fuc(a1-3)[Gal(b1-4)]GlcNAc(b1-2)Man(a1-3)[Fuc(a1-3)[Gal(b1-4)]GlcNAc(b1-2)Man(a1-6)]Man(b1-4)GlcNAc(b1-4)GlcNAc
In short: as §1

[21] = molecular target: Fuc(a1-3)[Gal(b1-4)]GlcNAc(b1-2)Man(a1-3)[Fuc(a1-3)[Gal(b1-4)]GlcNAc(b1-2)Man(a1-6)]Man(b1-4)GlcNAc(b1-4)[Fuc(a1-6)]GlcNAc
In short: as §1

[22] = molecular target: Fuc(a1-3)[Gal(b1-4)]GlcNAc(b1-3)Gal(b1-3)[Fuc(a1-4)]GlcNAc
In short: as §1

[23] = molecular target: Fuc(a1-3)[Gal(b1-4)]GlcNAc(b1-3)Gal(b1-4)[Fuc(a1-3)]GlcNAc
In short: as §1

[24] = molecular target: Fuc(a1-3)[Gal(b1-4)]GlcNAc(b1-3)Gal(b1-4)[Fuc(a1-3)]GlcNAc(b1-3)Gal(b1-4)[Fuc(a1-3)]GlcNAc
In short: as §1

[25] = molecular target: Fuc(a1-3)[Gal(b1-4)]GlcNAc(b1-3)GalNAc
In short: as §1

[26] = molecular target: Fuc(a1-3)[Gal(b1-4)]GlcNAc(b1-6)GalNAc
In short: as §1

[27] = molecular target: Fuc(a1-3)[Gal(b1-4)]GlcNAc(b1-6)[Gal(b1-3)GlcNAc(b1-3)]Gal(b1-4)Glc
In short: as §1

[28] = molecular target: Fuc(a1-3)[Gal(b1-4)]GlcNAc6S
In short: as §1

[29] = molecular target: Fuc(a1-3)[Gal3S(b1-4)]Glc
In short: as §1

[30] = molecular target: Fuc(a1-3)[Gal3S(b1-4)]GlcNAc
In short: as §1

[31] = molecular target: Fuc(a1-3)[Gal3S(b1-4)]GlcNAc6S
In short: as §1

[32] = molecular target: Fuc(a1-3)[GalNAc(b1-4)]GlcNAc
In short: as §1

[33] = molecular target: Fuc(a1-3)[GalNAc(b1-4)]GlcNAc6S
In short: as §1

Fuc(a1-4)GlcNAc = molecular target: Fuc(a1-4)GlcNAc
In short: as §1

Fuc(b1-3)GlcNAc = molecular target: Fuc(b1-3)GlcNAc
In short: as §1

Gal(a1-2)Gal = molecular target: Gal(a1-2)Gal
In short: as §1

B1: FGF1 (Homo sapiens), P05230 (protein)
chain: MAEGEITTFTALTEKFNLPPGNYKKPKLLYSNGGHFLRILPDGTVDGTRDRSDQHIQLQLSAESVGEVYIKSTETGQYLAMTDGLLYGSQTPNEECLFLERLEENHYNTYISKHAEKNWFVGLKKNGSCKRGPRTHYGQAILFLPLPASSED
- glycan array binding signal (z-score) [1]: 0.257
- glycan array binding signal (z-score) [2]: -0.775
- glycan array binding signal (z-score) [3]: -0.911
- glycan array binding signal (z-score) [4]: -0.9
- glycan array binding signal (z-score) [5]: -0.682
- glycan array binding signal (z-score) [6]: -0.344
- glycan array binding signal (z-score) [7]: 0.729
- glycan array binding signal (z-score) [8]: -0.878
- glycan array binding signal (z-score) [9]: -0.315
- glycan array binding signal (z-score) [10]: -0.242
- glycan array binding signal (z-score) [11]: -0.739
- glycan array binding signal (z-score) [12]: -0.587
- glycan array binding signal (z-score) [13]: 1.86
- glycan array binding signal (z-score) [14]: 1.36
- glycan array binding signal (z-score) [15]: -0.244
- glycan array binding signal (z-score) [16]: -0.441
- glycan array binding signal (z-score) (Fuc(a1-3)GlcNAc): -0.004
- glycan array binding signal (z-score) [17]: 2.09
- glycan array binding signal (z-score) [18]: 0.225
- glycan array binding signal (z-score) [19]: -0.249
- glycan array binding signal (z-score) [20]: -0.566
- glycan array binding signal (z-score) [21]: 0.327
- glycan array binding signal (z-score) [22]: -0.726
- glycan array binding signal (z-score) [23]: 1.32
- glycan array binding signal (z-score) [24]: -0.805
- glycan array binding signal (z-score) [25]: 0.371
- glycan array binding signal (z-score) [26]: 1.04
- glycan array binding signal (z-score) [27]: -0.795
- glycan array binding signal (z-score) [28]: 1.27
- glycan array binding signal (z-score) [29]: -0.712
- glycan array binding signal (z-score) [30]: 1.86
- glycan array binding signal (z-score) [31]: 1.09
- glycan array binding signal (z-score) [32]: 0.445
- glycan array binding signal (z-score) [33]: -0.781
- glycan array binding signal (z-score) (Fuc(a1-4)GlcNAc): -0.368
- glycan array binding signal (z-score) (Fuc(b1-3)GlcNAc): 0.133
- glycan array binding signal (z-score) (Gal(a1-2)Gal): 0.769
